According to publication PMC6629623:
No constants are given. Whether binding was seen depends on the method and setting. In cells and extracts the contact can be indirect. Some binding calls cover weakened binding; strength is not graded here. Sequences can lack the tags named with a protein.

Target: T1, Syndecan-4 with a C-terminal V5 tag (human) (UniProt P31431)
T1 sequence: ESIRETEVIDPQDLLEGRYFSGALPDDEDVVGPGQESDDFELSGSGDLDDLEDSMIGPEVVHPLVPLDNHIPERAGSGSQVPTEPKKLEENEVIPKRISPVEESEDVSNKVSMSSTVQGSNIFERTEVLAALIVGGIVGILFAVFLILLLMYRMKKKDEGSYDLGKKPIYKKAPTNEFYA
Experiment: co-IP; V5 antibody immunoprecipitation from lysates of HTR8 EVTs expressing SDC4-V5 or empty vector; cells treated with PMA for 20 minutes; mild lysis buffer (1% Triton X-100, 150 mM NaCl, 10 mM Tris, 1 mM EDTA, 1 mM EGTA, 0.5% NP-40); Protein G sepharose; mouse IgG1 as negative control; blot for PKCα

“protein kinase C alpha (from UniProt P17252 1-672) (enzyme)” was tested, and the binding was “binds”.
